Source: paper PMC9164399
Results are given in words; binding and its absence hold for the method and conditions named. Binding seen in cells or lysates may run through a third protein. Some binding calls cover weakened binding; strength is not graded here. For part of these data: Where a sequence is shown, tags or fusion partners need not be part of it. Each block holds one binder with its values, some of them ahead of it.

The chains behind the UniProt entries cited, without tags or fusion partners.
UniProt O14744: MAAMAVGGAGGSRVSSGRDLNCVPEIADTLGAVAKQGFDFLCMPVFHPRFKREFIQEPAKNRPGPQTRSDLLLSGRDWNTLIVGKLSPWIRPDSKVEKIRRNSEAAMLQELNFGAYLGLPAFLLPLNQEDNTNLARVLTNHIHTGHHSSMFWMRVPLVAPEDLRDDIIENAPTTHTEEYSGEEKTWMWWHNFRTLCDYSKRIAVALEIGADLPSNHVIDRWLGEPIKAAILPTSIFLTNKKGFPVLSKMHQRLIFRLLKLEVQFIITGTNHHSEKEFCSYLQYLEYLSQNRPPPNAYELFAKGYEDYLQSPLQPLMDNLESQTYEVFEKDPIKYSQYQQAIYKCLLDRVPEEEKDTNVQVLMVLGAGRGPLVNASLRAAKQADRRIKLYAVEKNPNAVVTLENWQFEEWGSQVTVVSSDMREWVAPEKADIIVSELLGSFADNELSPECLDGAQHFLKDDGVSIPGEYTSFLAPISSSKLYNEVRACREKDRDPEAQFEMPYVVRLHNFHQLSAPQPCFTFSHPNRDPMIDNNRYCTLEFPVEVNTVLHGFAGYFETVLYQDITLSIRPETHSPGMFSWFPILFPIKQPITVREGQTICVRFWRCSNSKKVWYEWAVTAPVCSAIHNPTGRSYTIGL

Columns and labels:
Flag-PRMT5 (human) [1] = molecular target: Flag-PRMT5 (human) (UniProt O14744); experiment: co-IP; domain mapping: a Flag- or HA-tagged full-length protein co-expressed with Myc-tagged truncations in HEK293T cells; immunoprecipitation with Flag, HA or Myc antibody, western blot
Flag-PRMT5 (human) [2] = molecular target: Flag-PRMT5 (human) (UniProt O14744); experiment: co-IP; one Flag-tagged and two HA-tagged proteins of Slug, PRMT5 and LSD1 co-expressed in HEK293T cells; immunoprecipitation with appropriate antibodies, western blot
[3] = molecular target: Protein arginine methyltransferase 5 (endogenous) (human (endogenous in HEK293T, MDA-MB-231, SUM159 and Hs578T)) (UniProt O14744); experiment: co-IP; endogenous proteins; lysates of MDA-MB-231, SUM159 or Hs578T cells immunoprecipitated with antibodies against Slug, LSD1 or PRMT5, Protein G magnetic beads, 4 °C, lysis buffer 50 mM Tris-HCl pH 8.0, 0.2% NP-40, 150 mM NaCl, 2 mM EDTA; immunoblot

binding (Flag-PRMT5 (human) [1]): binds
B1: Myc-tagged C-terminal Slug (128-268 aa) (domain or fragment, UniProt O43623 128-268)
chain: FQCNLCNKTYSTFSGLAKHKQLHCDAQSRKSFSCKYCDKEYVSLGALKMHIRTHTLPCVCKICGKAFSRPWLLQGHIRTHTGEKPFSCPHCNRAFADRSNLRAHLQTHSDVKKYQCKNCSKTFSRMSLLHKHEESGCCVAH

binding (Flag-PRMT5 (human) [2]): binds
B2: HA-Slug (protein, UniProt O43623 1-268)
chain: MPRSFLVKKHFNASKKPNYSELDTHTVIISPYLYESYSMPVIPQPEILSSGAYSPITVWTTAAPFHAQLPNGLSPLSGYSSSLGRVSPPPPSDTSSKDHSGSESPISDEEERLQSKLSDPHAIEAEKFQCNLCNKTYSTFSGLAKHKQLHCDAQSRKSFSCKYCDKEYVSLGALKMHIRTHTLPCVCKICGKAFSRPWLLQGHIRTHTGEKPFSCPHCNRAFADRSNLRAHLQTHSDVKKYQCKNCSKTFSRMSLLHKHEESGCCVAH

binding [3]: binds
B3: Slug (endogenous) (protein, UniProt O43623 1-268)
chain: MPRSFLVKKHFNASKKPNYSELDTHTVIISPYLYESYSMPVIPQPEILSSGAYSPITVWTTAAPFHAQLPNGLSPLSGYSSSLGRVSPPPPSDTSSKDHSGSESPISDEEERLQSKLSDPHAIEAEKFQCNLCNKTYSTFSGLAKHKQLHCDAQSRKSFSCKYCDKEYVSLGALKMHIRTHTLPCVCKICGKAFSRPWLLQGHIRTHTGEKPFSCPHCNRAFADRSNLRAHLQTHSDVKKYQCKNCSKTFSRMSLLHKHEESGCCVAH
